# Results deposited as PubChem BioAssay AID686943 (Drosophila RNAi Screening Center, 2013)
# Test: 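Knockdowns that increase or decrease active ERK after insulin receptor stimulation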 (primary screen)
# Cell system: Drosophila S2R+ haemocyte-like cells expressing YFP-tagged ERK (Rolled)
# Reagent: long dsRNA against Drosophila genes
# Conditions: insulin stimulation versus unstimulated cells; dose and duration not given
# Read-out: 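Per-plate z-scores of phospho-ERK immunostaining normalised to YFP-tagged ERK, measured with and without insulin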
# Direction: replicate 1, z-score of dpERK with insulin and replicate 2, z-score of dpERK with insulin: higher = more active ERK per ERK-YFP after insulin; replicate 1, z-score of dpERK under basal conditions: higher = more basal active ERK per ERK-YFP; replicate 1, z-score of ERK-YFP with insulin: higher = more YFP-tagged ERK signal
# The deposit covers about 23,000 reagents; shown is a random part of those with a known target gene and a result. 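Extra replicates exist only for a retested subset of genes; insulin dose and duration not given; both raised and lowered dpERK matter.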 The numbers tell different reagents against one gene apart. Names joined by + are all predicted targets of the reagent. The record does not give: the amount of reagent, the time to read-out.
gene knocked down,reagent,"replicate 1, z-score of dpERK with insulin","replicate 2, z-score of dpERK with insulin","replicate 1, z-score of dpERK under basal conditions","replicate 1, z-score of ERK-YFP with insulin"
Mal-A4 (GeneID 35827),1,-0.59,-0.09,-0.09,0.93
CG43308 (GeneID 12798125),1,-0.04,0.33,0.54,0.24
hid (GeneID 40009),1,-0.13,-0.29,-1.79,0.81
Irc (GeneID 42049),1,0.46,0.16,-0.63,-0.28
Qsox2 (GeneID 42583),1,-0.49,-0.35,0.19,-0.1
CG43376 (GeneID 12798198),1,0.96,-0.29,2.19,0.41
bor (GeneID 53565),1,0.17,0.59,0.24,0.33
CG5597 (GeneID 37789),1,0.43,-0.3,0.35,0.37
scaf6 (GeneID 3346235),1,0.56,-0.06,0.17,-1.39
scaf6 (GeneID 3346235),2,-0.09,1.05,1.58,-1.98
scaf6 (GeneID 3346235),3,2.99,0.07,1.31,-4.48
axo (GeneID 43923),1,0.04,1.19,-0.52,0.47
axo (GeneID 43923),2,-0.01,-0.33,0.37,0.1
axo (GeneID 43923),3,-2.84,0.37,-0.66,1.99
axo (GeneID 43923),4,-0.13,0.59,-0.2,0.82
CG12860 (GeneID 36629),1,0.55,0.37,0.11,0.01
CG34028 (GeneID 3885648),1,-0.17,0.17,1.05,0.56
BomS2 (GeneID 49802),1,0.76,0.42,1.69,0.02
CG2871 (GeneID 31411),1,1.14,0.27,0.7,-0.03
CG2871 (GeneID 31411),2,-0.06,-0.09,-0.79,0.01
Dhc93AB (GeneID 42485),1,0.43,-0.09,0.52,0.35

In a second layout: results already given
{"gene knocked down": "Mal-A4 (GeneID 35827)", "reagent": 1, "replicate 1, z-score of dpERK with insulin": -0.59, "replicate 2, z-score of dpERK with insulin": -0.09, "replicate 1, z-score of dpERK under basal conditions": -0.09, "replicate 1, z-score of ERK-YFP with insulin": 0.93}
{"gene knocked down": "CG43308 (GeneID 12798125)", "reagent": 1, "replicate 1, z-score of dpERK with insulin": -0.04, "replicate 2, z-score of dpERK with insulin": 0.33, "replicate 1, z-score of dpERK under basal conditions": 0.54, "replicate 1, z-score of ERK-YFP with insulin": 0.24}
{"gene knocked down": "hid (GeneID 40009)", "reagent": 1, "replicate 1, z-score of dpERK with insulin": -0.13, "replicate 2, z-score of dpERK with insulin": -0.29, "replicate 1, z-score of dpERK under basal conditions": -1.79, "replicate 1, z-score of ERK-YFP with insulin": 0.81}
{"gene knocked down": "Irc (GeneID 42049)", "reagent": 1, "replicate 1, z-score of dpERK with insulin": 0.46, "replicate 2, z-score of dpERK with insulin": 0.16, "replicate 1, z-score of dpERK under basal conditions": -0.63, "replicate 1, z-score of ERK-YFP with insulin": -0.28}
{"gene knocked down": "Qsox2 (GeneID 42583)", "reagent": 1, "replicate 1, z-score of dpERK with insulin": -0.49, "replicate 2, z-score of dpERK with insulin": -0.35, "replicate 1, z-score of dpERK under basal conditions": 0.19, "replicate 1, z-score of ERK-YFP with insulin": -0.1}
{"gene knocked down": "CG43376 (GeneID 12798198)", "reagent": 1, "replicate 1, z-score of dpERK with insulin": 0.96, "replicate 2, z-score of dpERK with insulin": -0.29, "replicate 1, z-score of dpERK under basal conditions": 2.19, "replicate 1, z-score of ERK-YFP with insulin": 0.41}
{"gene knocked down": "bor (GeneID 53565)", "reagent": 1, "replicate 1, z-score of dpERK with insulin": 0.17, "replicate 2, z-score of dpERK with insulin": 0.59, "replicate 1, z-score of dpERK under basal conditions": 0.24, "replicate 1, z-score of ERK-YFP with insulin": 0.33}
{"gene knocked down": "CG5597 (GeneID 37789)", "reagent": 1, "replicate 1, z-score of dpERK with insulin": 0.43, "replicate 2, z-score of dpERK with insulin": -0.3, "replicate 1, z-score of dpERK under basal conditions": 0.35, "replicate 1, z-score of ERK-YFP with insulin": 0.37}
{"gene knocked down": "scaf6 (GeneID 3346235)", "reagent": 1, "replicate 1, z-score of dpERK with insulin": 0.56, "replicate 2, z-score of dpERK with insulin": -0.06, "replicate 1, z-score of dpERK under basal conditions": 0.17, "replicate 1, z-score of ERK-YFP with insulin": -1.39}

Further records:
gene knocked down,reagent,"replicate 1, z-score of dpERK with insulin","replicate 2, z-score of dpERK with insulin","replicate 1, z-score of dpERK under basal conditions","replicate 1, z-score of ERK-YFP with insulin"
CG10748 (GeneID 39469),1,0.4,-0.05,0.63,0.1
ninaA (GeneID 33271),1,0.14,0.76,0.02,-0.18
Gtpx (GeneID 38413),1,-0.7,-0.09,0.03,0.87
Gtpx (GeneID 38413),2,0.43,-0.21,0.93,0
RabX6 (GeneID 38084),1,0.46,0.92,1.51,0.06
Uba4 (GeneID 34187),1,1.38,0.04,0.12,-0.42
Hsp70Aa + Hsp70Ab,1,-2.28,-2.26,-0.33,-0.94
CG31272 (GeneID 326130),1,-0.62,0.34,-1.08,0.08
obst-G (GeneID 39355),1,0.19,0.34,0.7,-0.53
Nhe1 (GeneID 33167),1,0.08,-0.28,0.69,0.48
Lgr3 (GeneID 43098),1,-1.12,-0.75,-0.09,0.2
Lgr3 (GeneID 43098),2,-1.75,0.21,0.17,0.71
CG13318 (GeneID 41048),1,-0.12,-0.41,-0.96,0
ric8a (GeneID 31874),1,-0.16,-0.08,-0.11,-1.29
CG15445 (GeneID 33094),1,-0.19,-0.21,-0.55,-0.43
CG7766 (GeneID 31839),1,-0.14,-0.64,-0.02,0.06
BckdhA (GeneID 41149),1,0.41,0.37,0.48,-0.04
Or2a (GeneID 31207),1,0.88,0,0.84,0.05
st (GeneID 39836),1,-1.49,-0.03,0.18,-0.01
CG11658 (GeneID 39319),1,-0.06,0.32,0.18,0.65
Elba2 (GeneID 33442),1,-0.45,0.49,0.27,0.22
DCP2 (GeneID 39722),1,0.17,-0.15,1.08,-0.55
DCP2 (GeneID 39722),2,0.17,-0.41,-0.8,-2.5
CG8420 (GeneID 41097),1,-0.17,-0.34,-0.08,-0.39
CG10734 (GeneID 36787),1,-0.83,-0.3,-0.55,0.48
Pvf2 (GeneID 33994),1,0.78,-0.05,0.02,-0.7
Pvf2 (GeneID 33994),2,0.33,0.02,-0.39,0.17
pont (GeneID 53439),1,0.55,-0.57,-3.19,2.99
CG14247 (GeneID 43221),1,1.53,-0.15,-0.36,-1.2
CG8675 (GeneID 32716),1,-0.12,0.1,0.13,-0.06
CG9886 (GeneID 33431),1,-0.23,-0.44,0.15,0.02
CG42284 (GeneID 37621),1,0.57,0.52,0.5,-1.06
CG42284 (GeneID 37621),2,-0.49,-0.16,-0.21,0.81
ind (GeneID 2768974),1,-4.81,-4.82,-3.42,-3.05
Fit2 (GeneID 39907),1,-0.53,-0.16,-0.34,0.41
CG31898 (GeneID 319012),1,0.65,0.41,-0.38,0.39
